The test system of the test is BDF1 mice, B16 melanoma ip, median survival T/C. Put plainly: NCI In Vivo Anticancer Drug Screen. Data for tumor model B16 Melanoma (intraperitoneal) in B6D2F1 (BDF1) mice. Conditions: T/C endpoint: median survival time, higher T/C = longer survival. An outline of the steps:
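The ratio T/C compares compound-treated mice with vehicle-treated controls, using survival or tumor size as the endpoint in a transplantable tumor model.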

Setting [1] is: dose: 12.5 mg/kg/injection, schedule: Q01DX009 (ip), vehicle: Klucel (hydroxypropylcellulose) (HPC).
Where [2] appears, read: dose: 50.0 mg/kg/injection, schedule: Q01DX009 (ip), vehicle: Klucel (hydroxypropylcellulose) (HPC).
Where [3] appears, read: dose: 50.0 mg/kg/injection, schedule: Q01DX009 (ip), vehicle: saline with Tween-80.
The mark [4] stands for this setting: dose: 100.0 mg/kg/injection, schedule: Q01DX009 (ip), vehicle: saline with Tween-80.
Setting [5] is: dose: 200.0 mg/kg/injection, schedule: Q01DX009 (ip), vehicle: saline with Tween-80.
Setting [6] is: dose: 100.0 mg/kg/injection, schedule: Q01DX009 (ip), vehicle: Klucel (hydroxypropylcellulose) (HPC).
[7] abbreviates: dose: 200.0 mg/kg/injection, schedule: Q01DX009 (ip), vehicle: Klucel (hydroxypropylcellulose) (HPC).
The mark [8] stands for this setting: dose: 400.0 mg/kg/injection, schedule: Q01DX009 (ip), vehicle: Klucel (hydroxypropylcellulose) (HPC).
Where [9] appears, read: dose: 12.5 mg/kg/injection, schedule: Q01DX009 (ip), vehicle: saline with Tween-80.
Setting [10] is: dose: 25.0 mg/kg/injection, schedule: Q01DX009 (ip), vehicle: saline with Tween-80.
The mark [11] stands for this setting: dose: 400.0 mg/kg/injection, schedule: Q01DX009 (ip), vehicle: saline with Tween-80.

Consider 20 compounds from PubChem BioAssay AID192 (DTP/NCI, 2004).

The list does not hold the whole screen: it gathers tests that were run many times, whatever their T/C, doses with no T/C, and many T/C values between a quarter and a half above the control. Other doses and runs of a compound stand elsewhere. T/C gives the treated animals as a percentage of the vehicle group. Some entries give survivors of the animals treated and no T/C: the source holds a T/C of zero for them, seemingly a mark for toxic or unscored doses. Some doses without a T/C left all or most animals alive at the check, yet need not have been tolerated: the source hardly ever lists a survival T/C far under the control, and the zero likely stands for such cases as well. Counts of survivors are from the toxicity check (mostly the fifth day) where no day follows; animals may have died later. Schedule codes are those of the source, taken here to give the interval after Q, in days (D) or hours (H), and the number of doses after X. Some entries hold several experiments; the values are given in rising order. Additions like (4×) say how often a value occurs here. For survival time, this PubChem deposit counts one and a half times the control or more as active, and values a quarter to a half above the control carry no call in these data; other NCI protocols may use other cut-offs.

As for `O=C1C=CC(=O)c2c(O)c(CO)c(CO)c(O)c21`, the survivor count (dose: 3.13 mg/kg/injection, schedule: Q01DX009 (ip), vehicle: Klucel (hydroxypropylcellulose) (HPC)) was 10 of 10; the survivor count (dose: 6.25 mg/kg/injection, schedule: Q01DX009 (ip), vehicle: Klucel (hydroxypropylcellulose) (HPC)) was 9 of 10; the survivor count under setting [1] was 0 of 10; the survivor count (dose: 25.0 mg/kg/injection, schedule: Q01DX009 (ip), vehicle: Klucel (hydroxypropylcellulose) (HPC)) was 0 of 10; the survivor count under setting [2] is given as 0 of 10.
Regarding `OCC1OC(n2cnc3cc(Cl)c(Cl)cc32)C(O)C1O` (stereo not drawn), the T/C (dose: 6.25 mg/kg/injection, schedule: Q01DX009 (ip), vehicle: saline with Tween-80) is 127 % of control; the T/C under setting [3] is 125 % of control; the T/C under setting [4] was 125 % of control. Moreover, the survivor count under setting [5] is 3 of 10 (2×) and 8 of 10.
On to `CCOC(=O)/C=C(\CBr)OC`, for which, under setting [2], the survivor count was 7 of 10.
For the compound `[Cu+2].[NH-]C(CC(=O)O)C(=O)O.[NH-]C(CC(=O)O)C(=O)O` (stereo not drawn), the survivor count runs as follows: (dose: 18.75 mg/kg/injection, schedule: Q01DX009 (ip), vehicle: saline) 10 of 10; (dose: 37.5 mg/kg/injection, schedule: Q01DX009 (ip), vehicle: saline) 3 of 10; (dose: 75.0 mg/kg/injection, schedule: Q01DX009 (ip), vehicle: saline) 0 of 10; (dose: 150.0 mg/kg/injection, schedule: Q01DX009 (ip), vehicle: saline) 0 of 10.
`O=C(Nc1ccccc1)c1ccc(C(F)(F)F)cc1O`: the survivor count reads like this: under setting [6], 10 of 10; under setting [7], 9 of 10.
Consider `O=c1[nH]cnc2ccc(Cl)cc12`, for which, under “dose: 150.0 mg/kg/injection, schedule: Q01DX009 (ip), vehicle: saline with Tween-80”, the survivor count was 3 of 6.
For the compound `Oc1cc2c3c(c1)c1cc4c(cc1c[n+]3CC2)OCO4`, the T/C by setting is: (dose: 6.25 mg/kg/injection, schedule: Q01DX009 (ip), vehicle: distilled water + Tween-80) 127 % of control; (dose: 12.5 mg/kg/injection, schedule: Q01DX009 (ip), vehicle: distilled water + Tween-80) 127 % of control; (dose: 12.5 mg/kg/injection, schedule: Q01DX009 (ip), vehicle: water) 130 % of control; (dose: 25.0 mg/kg/injection, schedule: Q01DX009 (ip), vehicle: water) 127 % of control. Besides, the survivor count (dose: 50.0 mg/kg/injection, schedule: Q01DX009 (ip), vehicle: distilled water + Tween-80) was 4 of 10.
`CC1(O)C=CC(=O)C=C1`: for the setting “dose: 100.0 mg/kg/injection, schedule: Q01DX009 (ip), vehicle: water”, the survivor count is on record as 0 of 10.
Turning to `C=CCCCC[P+](c1ccccc1)(c1ccccc1)c1ccccc1`, the survivor count was 6 of 6 (dose: 6.0 mg/kg/injection, schedule: Q01DX009 (ip), vehicle: saline) and 6 of 6 (dose: 12.0 mg/kg/injection, schedule: Q01DX009 (ip), vehicle: saline).
Turning to `COC1CCCCC1I` (stereo not drawn), the survivor count by setting is: (dose: 200.0 mg/kg/injection, schedule: Q01DX009 (ip), vehicle: alcohol) 9 of 10; (dose: 300.0 mg/kg/injection, schedule: Q04DX003 (ip), vehicle: alcohol) 7 of 10.
For the compound `COc1cc(C(O)C(Cl)(Cl)Cl)ccc1O` (stereo not drawn), under “dose: 400.0 mg/kg/injection, schedule: Q01DX009 (ip), vehicle: other”, the survivor count is reported as 7 of 10.
Turning to `Cc1cc(N)c2cc(NC(=O)CCCCCCCCC(=O)Nc3ccc4nc(C)cc(N)c4c3)ccc2n1`, the survivor count is 10 of 10 under setting [1], 10 of 10 under setting [6], 10 of 10 under setting [7] and 4 of 10 under setting [8].
Regarding `CCOC(=O)C(CC(C)C)NC(=O)C(Cc1ccc(N(CCCl)CCCl)cc1)NC(C)=O` (stereo not drawn), the T/C runs as follows: (dose: 16.0 mg/kg/injection, schedule: Q01DX009 (ip), vehicle: saline with Tween-80) 135 % of control; (dose: 32.0 mg/kg/injection, schedule: Q01DX009 (ip), vehicle: saline) 138 % of control; (dose: 64.0 mg/kg/injection, schedule: Q01DX009 (ip), vehicle: saline) 135 % of control. Besides, the survivor count by setting is: (dose: 32.0 mg/kg/injection, schedule: Q01DX009 (ip), vehicle: saline with Tween-80) 10 of 10; (dose: 64.0 mg/kg/injection, schedule: Q01DX009 (ip), vehicle: saline with Tween-80) 5 of 10; (dose: 128.0 mg/kg/injection, schedule: Q01DX009 (ip), vehicle: saline) 6 of 10; (dose: 256.0 mg/kg/injection, schedule: Q01DX009 (ip), vehicle: saline) 3 of 10.
For `O=NN(CCF)C(=O)NC1CCS(=O)(=O)CC1`, the T/C (dose: 1.9 mg/kg/injection, schedule: Q01DX001 (ip), vehicle: saline) is 136 % of control.
Regarding `CNC(=S)N/N=C1/c2cc(Cl)ccc2-c2c(Cl)cc(Cl)cc21`, the survivor count runs as follows: under setting [9], 6 of 6; under setting [10], 6 of 6; under setting [3], 6 of 6; under setting [4], 6 of 6; under setting [5], 6 of 6; under setting [11], 6 of 6. The survivor count (dose: 800.0 mg/kg/injection, schedule: Q01DX009 (ip), vehicle: saline with Tween-80) is given as 6 of 6.
`Cc1cc(Cc2cc(C)c(C)c(C)c2C)c(C)c(C)c1C`: the survivor count reads like this: under setting [9], 10 of 10; under setting [10], 10 of 10; under setting [3], 10 of 10; under setting [4], 9 of 10.
With `COC1/C=C\C=C(/C)C(=O)NC2=CC(=O)C(=O)C(=C2O)CC(C)CC(OC)C(O)C(C)/C=C(\C)C1OC(N)=O` (stereo not drawn), the survivor count by setting is: (dose: 12.5 mg/kg/injection, schedule: Q01DX005 (ip), vehicle: other) 3 of 6; (dose: 25.0 mg/kg/injection, schedule: Q01DX005 (ip), vehicle: other) 2 of 6; (dose: 50.0 mg/kg/injection, schedule: Q01DX005 (ip), vehicle: other) 0 of 6; (dose: 100.0 mg/kg/injection, schedule: Q01DX005 (ip), vehicle: other) 0 of 6; (dose: 200.0 mg/kg/injection, schedule: Q01DX005 (ip), vehicle: other) 0 of 6.
As for `C=COC(=O)CCCCCCCCCCCCCCCCC`, the survivor count was 6 of 6 under setting [6], 6 of 6 under setting [7] and 6 of 6 under setting [8].
In the case of `CC(NC(=O)C1CCCN1C(=O)OCc1ccccc1)C(=O)O` (stereo not drawn), the survivor count reads like this: under setting [5], 10 of 10; under setting [11], 10 of 10.
As for `CC1(C)N=C(N)N=C(N)N1c1ccc(F)c(C(F)(F)F)c1`, the survivor count is given as 9 of 10 (dose: 12.5 mg/kg/injection, schedule: Q01DX009 (ip), vehicle: saline); 6 of 10 (dose: 25.0 mg/kg/injection, schedule: Q01DX009 (ip), vehicle: saline); 10 of 10 (dose: 50.0 mg/kg/injection, schedule: Q01DX009 (ip), vehicle: saline); 3 of 10 (dose: 96.0 mg/kg/injection, schedule: Q01DX009 (ip), vehicle: saline); 2 of 10 (dose: 100.0 mg/kg/injection, schedule: Q01DX009 (ip), vehicle: saline). Besides, the T/C runs as follows: (dose: 24.0 mg/kg/injection, schedule: Q01DX009 (ip), vehicle: saline) 128 % of control; (dose: 48.0 mg/kg/injection, schedule: Q01DX009 (ip), vehicle: saline) 127 % of control.
